Laboratory results taken from publication PMC2661024.
Results are given in words; binding and its absence hold for the method and conditions named. Binding seen in cells or lysates may run through a third protein. Some results given as binding are weak or reduced against the parent protein; the word gives no strength.

Protein sequences, listed by entry. Tags and fused reporters are not part of them.
UniProt Q15075: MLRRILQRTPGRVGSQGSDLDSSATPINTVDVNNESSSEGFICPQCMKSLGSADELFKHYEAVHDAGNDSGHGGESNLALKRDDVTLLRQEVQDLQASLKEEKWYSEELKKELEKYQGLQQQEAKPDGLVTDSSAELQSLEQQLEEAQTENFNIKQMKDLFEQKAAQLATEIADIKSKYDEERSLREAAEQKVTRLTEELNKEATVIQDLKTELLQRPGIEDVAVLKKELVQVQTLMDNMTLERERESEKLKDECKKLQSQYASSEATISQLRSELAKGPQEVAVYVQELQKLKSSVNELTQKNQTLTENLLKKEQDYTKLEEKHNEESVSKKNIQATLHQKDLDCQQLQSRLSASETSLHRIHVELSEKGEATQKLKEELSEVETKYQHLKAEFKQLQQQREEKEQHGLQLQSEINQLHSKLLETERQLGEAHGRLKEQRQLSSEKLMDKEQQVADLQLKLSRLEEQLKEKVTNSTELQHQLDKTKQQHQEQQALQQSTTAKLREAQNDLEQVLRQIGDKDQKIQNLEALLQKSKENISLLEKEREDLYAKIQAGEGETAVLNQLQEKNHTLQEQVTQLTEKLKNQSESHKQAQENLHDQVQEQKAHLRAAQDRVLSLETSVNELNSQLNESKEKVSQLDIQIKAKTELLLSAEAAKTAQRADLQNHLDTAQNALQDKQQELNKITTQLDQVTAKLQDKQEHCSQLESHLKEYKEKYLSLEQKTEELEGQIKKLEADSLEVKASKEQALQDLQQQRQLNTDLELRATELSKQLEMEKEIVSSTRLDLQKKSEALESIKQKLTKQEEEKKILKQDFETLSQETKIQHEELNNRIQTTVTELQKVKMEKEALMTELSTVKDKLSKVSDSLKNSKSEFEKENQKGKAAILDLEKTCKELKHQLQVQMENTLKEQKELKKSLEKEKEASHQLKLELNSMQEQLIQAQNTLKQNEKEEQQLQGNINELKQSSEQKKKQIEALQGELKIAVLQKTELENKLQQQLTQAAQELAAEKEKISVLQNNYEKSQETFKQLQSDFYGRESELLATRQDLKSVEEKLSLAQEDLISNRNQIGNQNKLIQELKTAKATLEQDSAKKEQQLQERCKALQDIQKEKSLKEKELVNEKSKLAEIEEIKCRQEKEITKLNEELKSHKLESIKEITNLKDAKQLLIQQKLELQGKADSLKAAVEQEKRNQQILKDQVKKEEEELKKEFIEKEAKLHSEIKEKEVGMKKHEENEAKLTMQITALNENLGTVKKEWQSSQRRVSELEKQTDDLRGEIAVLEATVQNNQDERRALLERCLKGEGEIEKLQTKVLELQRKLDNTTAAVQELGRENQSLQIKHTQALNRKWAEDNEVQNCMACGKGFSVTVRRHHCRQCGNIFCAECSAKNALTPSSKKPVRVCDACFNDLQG

Biological target: Cif virulence factor (Pseudomonas aeruginosa (strain UCBPP-PA14))
Test: co-IP

Q: Which binding does the source give for “early endosomal antigen (EEA)-1 (from UniProt Q15075 1-1411)” here?
A: binds
